Compound in the test: Nc1nc2c(ncn2[C@@H]2O[C@H](COP(=O)(O)OP(=O)(O)OP(=O)(O)O)[C@@H](O)[C@H]2O)c(=O)[nH]1 [guanosine triphosphate]
Nature of the test: NP40-soluble protein abundance relative to vehicle (solubility fold change) (ratio); higher = more soluble protein in presence of GTP. Here is the method: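 Solubility proteome profiling in Jurkat crude lysate. Lysate was treated with Mg-GTP (0.1-10 mM) for 10 min at room temperature and 3 min at 37 °C, then solubilised with 0.8% NP40 and benzonase, followed by ultracentrifugation. Proteins were quantified by TMT10 LC-MS/MS; the value is the NP40-soluble abundance relative to the NP40-processed vehicle, from 3 independent experiments.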

Amino acid sequences for entries named in this document (tags omitted). A change or cut given only in a name is not applied to a line headed by its entry.
UniProt Q9UGR2: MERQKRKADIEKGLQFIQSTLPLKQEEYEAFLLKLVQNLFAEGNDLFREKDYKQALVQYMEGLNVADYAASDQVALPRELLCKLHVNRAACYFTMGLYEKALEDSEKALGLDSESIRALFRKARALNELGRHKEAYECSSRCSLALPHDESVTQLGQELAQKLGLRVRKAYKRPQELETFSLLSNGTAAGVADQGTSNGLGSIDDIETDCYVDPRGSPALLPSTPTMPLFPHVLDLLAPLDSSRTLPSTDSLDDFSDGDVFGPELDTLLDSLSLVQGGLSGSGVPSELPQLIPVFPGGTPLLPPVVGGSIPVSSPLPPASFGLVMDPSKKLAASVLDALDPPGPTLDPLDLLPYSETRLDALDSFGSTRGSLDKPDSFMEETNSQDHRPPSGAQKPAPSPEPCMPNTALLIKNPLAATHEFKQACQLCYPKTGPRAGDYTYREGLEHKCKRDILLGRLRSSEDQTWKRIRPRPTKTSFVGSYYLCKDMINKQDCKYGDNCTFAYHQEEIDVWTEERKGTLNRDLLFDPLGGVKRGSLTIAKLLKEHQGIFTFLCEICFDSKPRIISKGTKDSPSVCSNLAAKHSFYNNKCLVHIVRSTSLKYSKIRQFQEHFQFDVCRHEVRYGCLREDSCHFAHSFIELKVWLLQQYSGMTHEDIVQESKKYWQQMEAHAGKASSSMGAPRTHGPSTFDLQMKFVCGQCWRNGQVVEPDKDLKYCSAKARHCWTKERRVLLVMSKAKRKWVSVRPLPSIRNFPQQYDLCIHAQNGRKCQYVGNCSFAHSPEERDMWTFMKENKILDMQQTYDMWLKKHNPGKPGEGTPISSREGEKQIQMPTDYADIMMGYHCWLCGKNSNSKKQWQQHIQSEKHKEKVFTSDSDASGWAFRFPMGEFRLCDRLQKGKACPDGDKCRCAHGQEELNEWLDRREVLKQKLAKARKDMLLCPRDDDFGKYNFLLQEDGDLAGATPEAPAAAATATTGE
UniProt Q9UHB9: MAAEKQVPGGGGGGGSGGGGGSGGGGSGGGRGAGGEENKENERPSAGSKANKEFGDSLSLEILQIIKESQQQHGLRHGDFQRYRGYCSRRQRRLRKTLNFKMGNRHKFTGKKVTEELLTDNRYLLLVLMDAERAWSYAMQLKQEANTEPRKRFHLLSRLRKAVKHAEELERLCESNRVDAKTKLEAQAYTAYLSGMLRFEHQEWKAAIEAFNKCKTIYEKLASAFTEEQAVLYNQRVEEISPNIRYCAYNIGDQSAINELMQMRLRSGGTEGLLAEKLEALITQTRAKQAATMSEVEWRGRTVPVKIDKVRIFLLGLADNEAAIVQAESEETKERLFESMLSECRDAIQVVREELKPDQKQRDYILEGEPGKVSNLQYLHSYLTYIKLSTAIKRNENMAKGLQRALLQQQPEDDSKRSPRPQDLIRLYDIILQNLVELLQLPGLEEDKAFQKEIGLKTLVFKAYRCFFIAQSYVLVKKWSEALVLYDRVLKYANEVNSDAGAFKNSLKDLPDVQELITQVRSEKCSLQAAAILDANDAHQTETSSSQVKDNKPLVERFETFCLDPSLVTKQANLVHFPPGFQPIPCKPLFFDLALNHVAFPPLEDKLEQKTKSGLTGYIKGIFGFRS
UniProt Q9UBU6: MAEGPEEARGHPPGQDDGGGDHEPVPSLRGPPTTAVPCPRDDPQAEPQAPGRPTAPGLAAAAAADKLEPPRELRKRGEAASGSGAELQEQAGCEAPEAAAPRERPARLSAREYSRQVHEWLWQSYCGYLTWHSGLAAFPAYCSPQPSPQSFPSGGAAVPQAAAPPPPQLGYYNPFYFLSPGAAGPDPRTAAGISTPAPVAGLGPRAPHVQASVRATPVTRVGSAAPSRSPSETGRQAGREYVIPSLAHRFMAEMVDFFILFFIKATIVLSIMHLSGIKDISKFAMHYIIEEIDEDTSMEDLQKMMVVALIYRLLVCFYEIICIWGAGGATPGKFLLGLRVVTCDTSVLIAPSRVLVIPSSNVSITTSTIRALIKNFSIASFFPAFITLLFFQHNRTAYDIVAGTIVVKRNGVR
UniProt Q9NYL9: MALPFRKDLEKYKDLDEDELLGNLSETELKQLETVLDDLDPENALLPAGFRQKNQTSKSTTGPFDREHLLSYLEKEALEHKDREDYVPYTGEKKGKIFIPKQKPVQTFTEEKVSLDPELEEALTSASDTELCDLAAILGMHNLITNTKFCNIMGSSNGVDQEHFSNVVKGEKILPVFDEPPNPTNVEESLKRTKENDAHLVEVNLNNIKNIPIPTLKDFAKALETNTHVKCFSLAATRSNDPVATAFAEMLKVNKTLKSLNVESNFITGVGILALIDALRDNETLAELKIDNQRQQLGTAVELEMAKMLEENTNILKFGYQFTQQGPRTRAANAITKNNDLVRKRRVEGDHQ
UniProt Q9NY93: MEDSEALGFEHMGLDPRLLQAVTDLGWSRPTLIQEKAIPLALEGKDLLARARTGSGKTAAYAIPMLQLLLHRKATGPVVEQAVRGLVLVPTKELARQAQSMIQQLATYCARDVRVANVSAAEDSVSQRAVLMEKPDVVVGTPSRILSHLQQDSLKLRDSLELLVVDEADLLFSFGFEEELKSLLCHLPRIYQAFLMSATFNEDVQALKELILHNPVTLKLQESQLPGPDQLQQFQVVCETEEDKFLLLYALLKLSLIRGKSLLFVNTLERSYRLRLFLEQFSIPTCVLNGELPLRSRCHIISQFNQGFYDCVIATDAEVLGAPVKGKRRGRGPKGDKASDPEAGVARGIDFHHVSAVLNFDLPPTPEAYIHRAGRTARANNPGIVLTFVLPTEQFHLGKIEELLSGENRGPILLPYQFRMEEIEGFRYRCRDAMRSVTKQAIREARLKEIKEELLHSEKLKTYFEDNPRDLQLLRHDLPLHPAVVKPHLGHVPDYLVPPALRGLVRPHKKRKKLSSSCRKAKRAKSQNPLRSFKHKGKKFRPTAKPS

± gives the standard deviation of the averaged measurements. The list shows a part of the results.

Turning to UniProt Q9UGR2 and related entries, the NP40-soluble protein abundance is 1.08 ± 0.091 (concentration: 0.1mM); 1.1 ± 0.047 (concentration: 0.5mM); 1.12 ± 0.05 (concentration: 1mM); 1.08 ± 0.023 (concentration: 2mM); 1.13 ± 0.032 (concentration: 4mM); 1.08 ± 0.085 (concentration: 6mM). Besides, the NP40-soluble protein abundance runs as follows: (concentration: 8mM) 1.15 ± 0.045; (concentration: 10mM) 1.1 ± 0.018.

On to SRP68 (UniProt Q9UHB9), for which the NP40-soluble protein abundance (concentration: 0.1mM) was 0.949 ± 0.033; the NP40-soluble protein abundance (concentration: 0.5mM) turned out to be 0.955 ± 0.034; the NP40-soluble protein abundance (concentration: 1mM) stood at 0.981 ± 0.033; the NP40-soluble protein abundance (concentration: 2mM) is 1 ± 0.044; the NP40-soluble protein abundance (concentration: 4mM) turned out to be 1.04 ± 0.033; the NP40-soluble protein abundance (concentration: 6mM) came out at 1.04 ± 0.044. Moreover, the NP40-soluble protein abundance (concentration: 8mM) worked out at 1.05 ± 0.032 and the NP40-soluble protein abundance (concentration: 10mM) turned out to be 1.06 ± 0.045.

Turning to FAM8A1 (UniProt Q9UBU6), the NP40-soluble protein abundance (concentration: 0.1mM) is 0.961 ± 0.086; the NP40-soluble protein abundance (concentration: 0.5mM) came to 0.957 ± 0.081; the NP40-soluble protein abundance (concentration: 1mM) turned out to be 1.0698 ± 0.00034; the NP40-soluble protein abundance (concentration: 2mM) came out at 1.05 ± 0.0056; the NP40-soluble protein abundance (concentration: 4mM) amounted to 0.951 ± 0.1; the NP40-soluble protein abundance (concentration: 6mM) was 0.991 ± 0.095. The NP40-soluble protein abundance (concentration: 8mM) is 1.01 ± 0.12 and the NP40-soluble protein abundance (concentration: 10mM) worked out at 0.978 ± 0.089.

Take TMOD3 (UniProt Q9NYL9): the NP40-soluble protein abundance runs as follows: (concentration: 0.1mM) 0.878 ± 0.033; (concentration: 0.5mM) 0.855 ± 0.044; (concentration: 1mM) 1.03 ± 0.039; (concentration: 2mM) 1.01 ± 0.029; (concentration: 4mM) 1.02 ± 0.019; (concentration: 6mM) 1.02 ± 0.026. The NP40-soluble protein abundance was 1 ± 0.048 (concentration: 8mM) and 1.08 ± 0.04 (concentration: 10mM).

On to UniProt Q9NY93 and related entries, for which the NP40-soluble protein abundance is, setting by setting: (concentration: 0.1mM) 1.02 ± 0.045; (concentration: 0.5mM) 1.01 ± 0.035; (concentration: 1mM) 0.984 ± 0.022; (concentration: 2mM) 0.997 ± 0.021; (concentration: 4mM) 0.989 ± 0.063; (concentration: 6mM) 0.98 ± 0.035. Besides, the NP40-soluble protein abundance came to 0.989 ± 0.036 (concentration: 8mM) and 1.02 ± 0.068 (concentration: 10mM).

These data come from the supplement of paper PMC6411743.
